Measurements: PMC8828901
For at least one entry, the source does not settle the construct or the ends of the probe. For part of these data: Weaker means in comparison with the reference protein, sequence or condition of that experiment.

Assays:
Test in all cases: EMSA
[1] = system: Sox9 (TNT-Sox9); conditions: 40 mM Hepes pH 7.9, 75 mM KCl, 0.2 mM EDTA, 0.5 mM DTT, 150 ng/ul poly(dI-dC), 5% Ficoll, room temperature, 30 min, 7 ug TNT protein, protein translated in vitro, label: 32P
[2] = system: Nkx2.1 (TNT-Nkx2.1); conditions: weak, non-specific: unrelated oligo competes as well as related; 40 mM Hepes pH 7.9, 75 mM KCl, 0.2 mM EDTA, 0.5 mM DTT, 150 ng/ul poly(dI-dC), 5% Ficoll, room temperature, 30 min; 7 ug TNT protein; protein translated in vitro; label: 32P
[3] = system: Foxe1 (TNT-Foxe1); conditions: specific; 40 mM Hepes pH 7.9, 75 mM KCl, 0.2 mM EDTA, 0.5 mM DTT, 150 ng/ul poly(dI-dC), 5% Ficoll, room temperature, 30 min; 7 ug TNT protein; protein translated in vitro; label: 32P
[4] = system: Pax8 (TNT-Pax8); conditions: specific; 40 mM Hepes pH 7.9, 75 mM KCl, 0.2 mM EDTA, 0.5 mM DTT, 150 ng/ul poly(dI-dC), 5% Ficoll, room temperature, 30 min; 7 ug TNT protein; protein translated in vitro; label: 32P

Sequence: AGGCTTCTATTGTCTTGTTGCTTT (double strand) [Nkx2.1 promoter Sox9 site]
- binding result ([1]; weaker, non-specific): binds more weakly

Sequence: GGCCCTCAGAACAAAGTTCTCACT (double strand) [Pax8 promoter Sox9 site]
- binding result ([1]; strong, specific): binds

Sequence: GTCTGGAAACTTCAGTGGGAGCGA (double strand) [Sox9 promoter Nkx2.1 site -15/-7]
- binding result [2]: binds more weakly

Sequence: TCATGACCTTTGTATTAATC (double strand) [Foxe1 promoter Sox9 site]
- binding result ([1]; strong, specific): binds

Sequence: TGAGTCACCCAAACATTTCTTCCA (double strand) [Sox9 promoter Foxe1 site]
- binding result [3]: binds

Sequence: TTTCGGTCCAGGAACTTTTCTTTG (double strand) [Sox9 promoter Pax8 site]
- binding result [4]: binds
